Test results taken from PMC5343593.

Sequences of proteins named here, by UniProt entry; tags and fusion partners are left off. A change or cut given only in a name is not applied to a line headed by its entry.
UniProt Q9Y4E8: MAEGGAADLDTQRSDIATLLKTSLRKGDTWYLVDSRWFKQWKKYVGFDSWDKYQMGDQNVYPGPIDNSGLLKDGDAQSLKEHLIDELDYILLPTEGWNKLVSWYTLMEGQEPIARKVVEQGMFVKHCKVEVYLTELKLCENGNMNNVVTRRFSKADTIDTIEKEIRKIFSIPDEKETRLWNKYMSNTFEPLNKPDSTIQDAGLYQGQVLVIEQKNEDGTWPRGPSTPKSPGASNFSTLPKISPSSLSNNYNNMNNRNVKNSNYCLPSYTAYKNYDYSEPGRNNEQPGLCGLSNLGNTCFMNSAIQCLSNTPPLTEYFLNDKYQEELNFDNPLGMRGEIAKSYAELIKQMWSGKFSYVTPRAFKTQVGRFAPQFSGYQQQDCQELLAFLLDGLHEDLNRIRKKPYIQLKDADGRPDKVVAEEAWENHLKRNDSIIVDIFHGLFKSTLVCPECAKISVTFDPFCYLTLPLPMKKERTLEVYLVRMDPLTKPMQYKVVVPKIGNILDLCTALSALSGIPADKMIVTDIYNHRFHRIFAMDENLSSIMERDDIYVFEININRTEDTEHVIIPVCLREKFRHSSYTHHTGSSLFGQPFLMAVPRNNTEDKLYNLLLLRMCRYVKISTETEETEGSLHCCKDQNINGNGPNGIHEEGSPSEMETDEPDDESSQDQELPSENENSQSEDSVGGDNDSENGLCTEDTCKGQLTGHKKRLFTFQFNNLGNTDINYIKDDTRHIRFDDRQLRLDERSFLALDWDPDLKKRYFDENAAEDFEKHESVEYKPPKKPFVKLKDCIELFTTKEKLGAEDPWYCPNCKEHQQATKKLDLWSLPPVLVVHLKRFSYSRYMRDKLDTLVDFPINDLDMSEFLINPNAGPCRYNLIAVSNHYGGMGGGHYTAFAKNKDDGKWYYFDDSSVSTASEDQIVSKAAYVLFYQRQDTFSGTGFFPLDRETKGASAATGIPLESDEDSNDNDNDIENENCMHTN
UniProt Q63HN8: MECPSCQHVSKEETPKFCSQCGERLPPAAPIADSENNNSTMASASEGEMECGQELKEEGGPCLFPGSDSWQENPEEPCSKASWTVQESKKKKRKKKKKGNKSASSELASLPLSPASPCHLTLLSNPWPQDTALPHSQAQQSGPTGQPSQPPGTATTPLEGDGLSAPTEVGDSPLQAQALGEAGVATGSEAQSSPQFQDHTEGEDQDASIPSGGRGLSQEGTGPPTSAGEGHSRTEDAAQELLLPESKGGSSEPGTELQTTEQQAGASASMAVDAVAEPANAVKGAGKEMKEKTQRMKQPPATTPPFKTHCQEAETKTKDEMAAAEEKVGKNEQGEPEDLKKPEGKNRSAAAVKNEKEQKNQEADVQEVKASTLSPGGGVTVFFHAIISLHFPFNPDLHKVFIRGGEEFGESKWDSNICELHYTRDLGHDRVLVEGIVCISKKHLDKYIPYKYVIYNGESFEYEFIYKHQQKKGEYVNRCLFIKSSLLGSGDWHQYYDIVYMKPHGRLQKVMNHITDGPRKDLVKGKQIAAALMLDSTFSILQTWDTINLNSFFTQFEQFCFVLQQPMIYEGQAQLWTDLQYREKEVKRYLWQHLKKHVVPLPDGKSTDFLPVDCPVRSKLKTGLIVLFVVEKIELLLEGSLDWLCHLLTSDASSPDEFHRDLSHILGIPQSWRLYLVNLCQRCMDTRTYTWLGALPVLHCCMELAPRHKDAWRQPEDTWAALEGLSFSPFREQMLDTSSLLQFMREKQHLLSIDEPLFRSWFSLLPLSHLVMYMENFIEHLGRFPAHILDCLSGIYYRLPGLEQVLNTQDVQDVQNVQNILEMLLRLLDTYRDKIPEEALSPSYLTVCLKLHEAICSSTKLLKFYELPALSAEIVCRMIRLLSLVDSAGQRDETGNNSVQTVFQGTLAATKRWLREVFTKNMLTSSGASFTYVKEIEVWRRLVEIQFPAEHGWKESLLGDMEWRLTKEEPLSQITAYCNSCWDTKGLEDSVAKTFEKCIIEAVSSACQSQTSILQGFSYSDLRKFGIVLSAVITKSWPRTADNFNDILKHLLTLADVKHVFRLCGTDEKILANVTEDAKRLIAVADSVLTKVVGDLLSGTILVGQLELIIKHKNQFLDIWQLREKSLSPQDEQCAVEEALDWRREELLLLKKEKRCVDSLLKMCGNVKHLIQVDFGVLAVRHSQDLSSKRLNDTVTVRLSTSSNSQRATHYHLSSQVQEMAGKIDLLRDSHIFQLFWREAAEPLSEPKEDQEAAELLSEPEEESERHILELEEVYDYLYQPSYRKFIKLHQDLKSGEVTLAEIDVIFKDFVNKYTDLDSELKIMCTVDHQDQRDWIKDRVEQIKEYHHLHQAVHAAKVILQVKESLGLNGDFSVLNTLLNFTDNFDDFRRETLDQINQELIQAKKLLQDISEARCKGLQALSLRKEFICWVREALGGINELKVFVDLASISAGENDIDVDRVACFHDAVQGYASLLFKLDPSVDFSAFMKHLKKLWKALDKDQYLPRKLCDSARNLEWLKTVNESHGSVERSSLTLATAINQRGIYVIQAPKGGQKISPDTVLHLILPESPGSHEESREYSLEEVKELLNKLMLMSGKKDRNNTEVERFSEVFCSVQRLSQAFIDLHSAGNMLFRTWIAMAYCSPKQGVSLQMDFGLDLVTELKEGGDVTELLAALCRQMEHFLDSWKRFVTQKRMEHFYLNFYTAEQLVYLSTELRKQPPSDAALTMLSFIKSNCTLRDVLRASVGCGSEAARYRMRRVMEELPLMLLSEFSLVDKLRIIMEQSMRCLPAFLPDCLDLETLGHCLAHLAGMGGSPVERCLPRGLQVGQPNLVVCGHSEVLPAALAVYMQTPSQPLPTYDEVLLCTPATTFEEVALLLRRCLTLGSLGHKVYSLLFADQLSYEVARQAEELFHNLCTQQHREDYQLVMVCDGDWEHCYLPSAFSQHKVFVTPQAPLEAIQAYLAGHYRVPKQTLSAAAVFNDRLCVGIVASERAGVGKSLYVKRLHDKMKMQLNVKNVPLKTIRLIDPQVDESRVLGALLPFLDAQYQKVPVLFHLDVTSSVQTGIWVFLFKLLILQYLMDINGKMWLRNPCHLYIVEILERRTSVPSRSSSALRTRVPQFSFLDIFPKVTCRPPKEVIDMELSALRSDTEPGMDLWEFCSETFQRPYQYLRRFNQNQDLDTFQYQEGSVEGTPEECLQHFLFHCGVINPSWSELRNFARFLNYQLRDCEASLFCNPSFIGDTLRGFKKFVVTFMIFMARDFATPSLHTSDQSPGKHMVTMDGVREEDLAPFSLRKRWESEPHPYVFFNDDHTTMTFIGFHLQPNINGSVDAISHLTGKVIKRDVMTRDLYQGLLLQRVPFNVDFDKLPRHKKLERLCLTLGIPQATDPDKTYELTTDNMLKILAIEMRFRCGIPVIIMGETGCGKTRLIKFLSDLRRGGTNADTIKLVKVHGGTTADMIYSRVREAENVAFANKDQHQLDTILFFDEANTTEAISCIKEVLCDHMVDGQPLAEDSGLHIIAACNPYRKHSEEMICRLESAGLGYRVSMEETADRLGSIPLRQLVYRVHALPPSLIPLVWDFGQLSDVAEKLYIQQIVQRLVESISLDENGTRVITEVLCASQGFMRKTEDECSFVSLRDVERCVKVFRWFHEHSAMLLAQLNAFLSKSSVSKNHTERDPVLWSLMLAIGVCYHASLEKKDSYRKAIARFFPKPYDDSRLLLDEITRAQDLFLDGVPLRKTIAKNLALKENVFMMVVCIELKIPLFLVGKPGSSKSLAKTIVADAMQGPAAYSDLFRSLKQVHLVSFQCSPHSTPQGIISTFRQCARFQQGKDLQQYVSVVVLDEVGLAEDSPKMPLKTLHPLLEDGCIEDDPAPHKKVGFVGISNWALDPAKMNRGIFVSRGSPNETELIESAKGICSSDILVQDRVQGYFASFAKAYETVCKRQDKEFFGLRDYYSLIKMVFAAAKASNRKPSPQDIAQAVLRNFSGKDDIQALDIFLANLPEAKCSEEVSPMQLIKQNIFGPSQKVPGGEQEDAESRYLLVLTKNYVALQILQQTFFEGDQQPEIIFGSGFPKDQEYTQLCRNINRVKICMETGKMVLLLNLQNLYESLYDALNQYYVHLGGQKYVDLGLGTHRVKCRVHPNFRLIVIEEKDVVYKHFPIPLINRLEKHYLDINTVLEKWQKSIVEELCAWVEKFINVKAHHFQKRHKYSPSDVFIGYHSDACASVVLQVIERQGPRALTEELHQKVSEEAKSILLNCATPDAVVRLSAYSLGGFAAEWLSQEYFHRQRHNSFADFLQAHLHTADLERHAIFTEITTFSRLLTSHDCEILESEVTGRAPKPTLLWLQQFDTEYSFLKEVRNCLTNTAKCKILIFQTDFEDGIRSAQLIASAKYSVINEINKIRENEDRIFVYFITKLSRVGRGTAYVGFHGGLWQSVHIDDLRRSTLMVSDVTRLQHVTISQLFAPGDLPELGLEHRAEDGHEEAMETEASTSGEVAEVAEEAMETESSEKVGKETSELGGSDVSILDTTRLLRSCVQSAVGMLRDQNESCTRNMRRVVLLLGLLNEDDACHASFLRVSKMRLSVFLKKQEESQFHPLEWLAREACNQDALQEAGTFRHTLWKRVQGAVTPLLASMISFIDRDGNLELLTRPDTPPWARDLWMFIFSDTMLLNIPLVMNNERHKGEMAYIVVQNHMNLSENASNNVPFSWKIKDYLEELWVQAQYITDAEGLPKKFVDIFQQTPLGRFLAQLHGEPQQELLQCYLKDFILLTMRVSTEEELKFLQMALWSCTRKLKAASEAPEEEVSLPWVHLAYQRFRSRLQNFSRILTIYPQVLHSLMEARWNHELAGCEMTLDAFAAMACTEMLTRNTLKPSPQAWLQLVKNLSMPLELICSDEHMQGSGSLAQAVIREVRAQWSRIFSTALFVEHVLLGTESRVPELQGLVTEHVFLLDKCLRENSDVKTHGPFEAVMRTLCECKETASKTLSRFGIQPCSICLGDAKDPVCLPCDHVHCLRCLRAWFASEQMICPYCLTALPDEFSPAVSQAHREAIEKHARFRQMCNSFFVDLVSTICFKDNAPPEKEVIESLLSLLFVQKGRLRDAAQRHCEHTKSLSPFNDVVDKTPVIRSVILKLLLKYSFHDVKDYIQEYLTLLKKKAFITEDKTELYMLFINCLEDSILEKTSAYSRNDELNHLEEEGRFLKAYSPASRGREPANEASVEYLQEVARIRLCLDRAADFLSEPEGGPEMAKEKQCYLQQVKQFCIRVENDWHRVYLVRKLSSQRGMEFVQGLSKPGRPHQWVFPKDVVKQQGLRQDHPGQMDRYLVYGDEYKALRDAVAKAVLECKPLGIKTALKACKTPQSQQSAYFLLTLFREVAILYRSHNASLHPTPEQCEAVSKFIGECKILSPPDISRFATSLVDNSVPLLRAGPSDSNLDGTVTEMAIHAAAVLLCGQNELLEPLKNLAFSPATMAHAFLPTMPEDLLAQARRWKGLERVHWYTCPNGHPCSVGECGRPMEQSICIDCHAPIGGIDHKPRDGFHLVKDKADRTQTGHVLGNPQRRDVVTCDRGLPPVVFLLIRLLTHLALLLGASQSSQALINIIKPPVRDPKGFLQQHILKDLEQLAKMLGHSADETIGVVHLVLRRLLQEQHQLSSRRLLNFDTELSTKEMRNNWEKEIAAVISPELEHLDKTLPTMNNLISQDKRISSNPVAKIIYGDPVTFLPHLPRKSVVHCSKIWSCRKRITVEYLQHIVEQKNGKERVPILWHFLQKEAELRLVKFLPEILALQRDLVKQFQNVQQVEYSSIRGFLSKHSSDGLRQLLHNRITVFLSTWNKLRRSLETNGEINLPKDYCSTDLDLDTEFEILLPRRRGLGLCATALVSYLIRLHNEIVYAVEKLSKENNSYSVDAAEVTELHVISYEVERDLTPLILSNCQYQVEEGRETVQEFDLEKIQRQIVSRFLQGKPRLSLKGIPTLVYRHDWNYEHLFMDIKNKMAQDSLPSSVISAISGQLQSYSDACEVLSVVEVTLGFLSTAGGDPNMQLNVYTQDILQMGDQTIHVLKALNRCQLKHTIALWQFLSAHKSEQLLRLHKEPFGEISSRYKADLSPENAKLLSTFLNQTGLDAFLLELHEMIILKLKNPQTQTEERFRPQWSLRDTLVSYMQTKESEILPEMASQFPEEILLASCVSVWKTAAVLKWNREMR

Target: USP15Lmt-Myc (enzymatic mutant of USP15L with a Myc epitope tag at the C-terminus) (human) (UniProt Q9Y4E8)
Assay: co-IP; Myc-tagged USP15L or mutant transiently expressed in HEK293T; digitonin HEPES buffer; anti-Myc antibody and protein G beads; endogenous mysterin detected by immunoblot

binding: binds
Substance: mysterin (moyamoya steno-occlusive disease-associated AAA+ and RING finger protein), endogenous (from UniProt Q63HN8 1-5207)

These are yes or no findings as the source states them, for the method shown. Binding seen in cells or lysates may run through a third protein. A result given as binding can be weak or reduced; the word gives no strength.
